# Measurements reported in PMC7862700.
# The entries are a selection whose mix differs from that of the whole data set. For some of these results: At the low end of the ranking, values are background and their order means little. This is one part of the list. For some of these results: Construct or isoform of the protein are uncertain.
# Tests used:
# ETS1 = molecular target: T1, ETS1 (UniProt P14921); experiment: DAPPL (digital affinity profiling via proximity ligation, sequencing); conditions: 10 mM Tris-HCl pH 7.5, 50 mM NaCl, 1 mM DTT, 4% glycerol, room temperature, 30 min; GST-TFs on glutathione beads, 16-mer random dsDNA library, 0.1% …; high values mean tight binding; double strand, one strand shown; scale: fold enrichment (6-mer frequency, TF over GST control)
# T1 sequence: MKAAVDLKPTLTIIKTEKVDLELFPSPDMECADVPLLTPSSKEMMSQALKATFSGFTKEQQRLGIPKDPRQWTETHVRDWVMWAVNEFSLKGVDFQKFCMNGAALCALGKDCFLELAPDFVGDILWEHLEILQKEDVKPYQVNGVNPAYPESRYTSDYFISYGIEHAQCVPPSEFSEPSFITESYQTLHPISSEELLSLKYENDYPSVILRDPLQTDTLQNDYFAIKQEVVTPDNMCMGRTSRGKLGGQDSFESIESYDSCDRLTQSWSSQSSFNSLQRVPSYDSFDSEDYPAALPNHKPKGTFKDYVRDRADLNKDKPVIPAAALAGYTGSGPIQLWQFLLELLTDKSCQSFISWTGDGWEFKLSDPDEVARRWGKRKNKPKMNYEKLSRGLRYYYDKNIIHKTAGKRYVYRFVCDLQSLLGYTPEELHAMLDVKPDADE
# SPDEF = molecular target: T2, SPDEF (UniProt O95238); experiment: as above; conditions: 10 mM Tris-HCl pH 7.5, 50 mM NaCl, 1 mM DTT, 4% glycerol, room temperature, 30 min; GST-TFs on glutathione beads, 16-mer random dsDNA library, 0.1% …; high values mean tight binding; double strand, one strand shown; scale: fold enrichment (6-mer frequency, TF over GST control)
# T2 sequence: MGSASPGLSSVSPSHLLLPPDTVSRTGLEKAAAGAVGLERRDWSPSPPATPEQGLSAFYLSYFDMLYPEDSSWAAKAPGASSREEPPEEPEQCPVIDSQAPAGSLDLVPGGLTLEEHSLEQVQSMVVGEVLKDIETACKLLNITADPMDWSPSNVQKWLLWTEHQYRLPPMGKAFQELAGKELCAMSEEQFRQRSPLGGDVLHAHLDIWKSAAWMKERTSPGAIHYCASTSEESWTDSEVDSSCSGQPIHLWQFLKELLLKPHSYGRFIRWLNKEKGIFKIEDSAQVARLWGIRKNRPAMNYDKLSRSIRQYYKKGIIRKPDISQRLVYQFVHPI
Sequence,binding signal (ETS1),binding signal (SPDEF)
ATGTGC,1.07,1.23
ACTTGG,1.25,1.21
TCTGTA,1.28,1.26
AACTAC,1.4,1.48
GGCTTG,1.07,0.919
CCTGCG,1.35,1.23
AGTATT,1.29,1.05
ACAGCC,1.06,1.02
TGTTTT,1.4,1.41
GCTGGT,1.13,1.2
GTCACT,1.08,0.979
AAGACT,1.07,0.951
TAAAGC,1.14,0.984
GATTGC,0.984,0.973
CAGATG,1.09,0.985
CTCTAC,1.54,1.54
GCCTAC,1.19,1.12
ATAAAG,1.1,0.984
CAAGCC,1.03,0.865

Sequence,binding signal (ETS1),binding signal (SPDEF)
GCAGCT,0.995,1.06
GCTCAC,1.44,1.42
CCGGCT,1.64,2.32
ACTGGT,1.1,0.988
AGCTGT,0.959,0.929
TACTAT,1.34,1.37
CCTTCC,2.37,2.44
TAGGAA,1.12,1.11
CGGATC,0.965,1.67
CGGTTT,1.23,1.36
TGCCCA,1.22,1.12
CCATTA,1.12,0.959
TCCCTG,1.41,1.19
AAGGGT,1.02,0.923
ACCCCC,1.1,1.1
GAGCTT,1.05,0.926
CTTTAC,1.38,1.35
TTAGAT,1.12,1.08
CCTTGT,1.35,1.37

# Taken from above (two entries):
Sequence,binding signal (ETS1),binding signal (SPDEF)
GAGCTT,1.05,0.926
CTTTAC,1.38,1.35
